Test results published in patent US20120014876A1.
Results are given in words; binding and its absence hold for the method and conditions named. Some entries that bind do so weakly or less than the wild type.

Columns and labels:
mouse Fzd-2 (mouse) [1] = target: mouse Fzd-2 (mouse) (UniProt Q9JIP6); test: competition with rhodamine-labeled UM206 on kidney and small intestine sections
mouse Fzd-1 (mouse) [2] = target: mouse Fzd-1 (mouse) (UniProt O70421); test: as above
mouse Fzd-2 (mouse) [3] = target: mouse Fzd-2 (mouse) (UniProt Q9JIP6); test: pre-incubation with UM207 (1.10^-8 M) abolished UM206-rhodamine staining of mouse kidney and gut sections
mouse Fzd-1 (mouse) [4] = target: mouse Fzd-1 (mouse) (UniProt O70421); test: as above

Measured: binding

GIKECQYQFRHRRWNCSTVD (N-terminal acetyl (Ac-); C-terminal amide (-NH2)) [Peptide UM207]
binds: all assays above
